Results as given in paper PMC12378234, “Enzyme-mediated aminoglycoside resistance without target mimicry” (Communications Chemistry, 2025).
Values joined by “and” are separate entries in the source; they are usually repeats but may differ in a detail not shown here. Equal values may be shown once. Read-outs that look alike come from different tables or passages of the source. The source gives many values for each of these; only a part stands here.

System: BL21(DE3) E. coli transformed with pUCP18 vector expressing untagged AAC(3)-IIIa
Type: cell-based
Procedure: Ten milliliters of LB containing […] ampicillin were inoculated from glycerol stocks of transformed BL21(DE3) E. coli containing genes expressing the proteins of interest in pUCP18 vectors. These cultures were incubated at 37 °C with 200 rpm agitation for 16 h. Turbidity was measured through OD600 with a NanoDrop OneC Spectrometer (Thermo Scientific). From the initial cultures, secondary 10 mL cultures were prepared with OD600 values of 0.1. These cultures were grown until OD600 values of 0.4–0.6 were reached and diluted to bring all cultures to the same OD600. Cultures were induced with 1 mM Isopropyl β-D-1-thiogalactopyranoside and incubated for 4 h. Two microliters of culture was added to 198 μL of LB with an appropriate aminoglycoside titration concentration. Each titration point was repeated n = 4 times. The formulated 96-well culture plate (Sarstedt) had OD600 measured on a 20-min interval over 17 h using a BioTek Cytation 5 Cell Imaging Multimode Reader, incubating at 37 °C with 282 cpm orbital agitation. Experiments were repeated with fresh cultures on separate days to ensure consistent trends. Data was analyzed in Microsoft Excel and GraphPad5. The remainder of the culture immediately had its RNA isolated for qPCR experiments.

`CN[C@@H]1[C@@H](O)[C@@H](O[C@@H]2[C@@H](O)[C@H](O[C@H]3OC(CN)=CC[C@H]3N)[C@@H](N)C[C@H]2N)OC[C@]1(C)O` [Sisomicin, sisomicin] was tested, and the OD600 growth curve (6 ug/mL Sisomicin, time point 08:59:10) was 0.305 and 0.327 and 0.299 and 0.242, the OD600 growth curve (6 ug/mL Sisomicin, time point 09:19:10) was 0.313 and 0.337 and 0.307 and 0.261 and the OD600 growth curve (6 ug/mL Sisomicin, time point 09:39:10) was 0.317 and 0.343 and 0.313 and 0.278. The OD600 growth curve (6 ug/mL Sisomicin, time point 09:59:10) was 0.323 and 0.349 and 0.322 and 0.299, the OD600 growth curve (6 ug/mL Sisomicin, time point 10:19:10) was 0.329 and 0.356 and 0.328 and 0.314 and the OD600 growth curve (6 ug/mL Sisomicin, time point 10:39:10) was 0.333 and 0.359 and 0.325. For the same compound, the OD600 growth curve (6 ug/mL Sisomicin, time point 10:59:10) was 0.337 and 0.363 and 0.336 and 0.335, the OD600 growth curve (6 ug/mL Sisomicin, time point 11:19:10) was 0.341 and 0.367 and 0.34 and 0.342 and the OD600 growth curve (6 ug/mL Sisomicin, time point 11:39:10) was 0.344 and 0.37 and 0.354. The OD600 growth curve (6 ug/mL Sisomicin, time point 11:59:10) was 0.345 and 0.372 and 0.346 and 0.363, the OD600 growth curve (6 ug/mL Sisomicin, time point 12:19:10) was 0.348 and 0.373 and 0.349 and 0.371 and the OD600 growth curve (6 ug/mL Sisomicin, time point 12:39:10) was 0.349 and 0.376 and 0.35 and 0.381. For the same compound, the OD600 growth curve (6 ug/mL Sisomicin, time point 12:59:10) was 0.351 and 0.378 and 0.352 and 0.389, the OD600 growth curve (6 ug/mL Sisomicin, time point 13:19:10) was 0.351 and 0.377 and 0.354 and 0.399 and the OD600 growth curve (6 ug/mL Sisomicin, time point 13:39:10) was 0.352 and 0.376 and 0.356 and 0.407. The OD600 growth curve (6 ug/mL Sisomicin, time point 13:59:10) was 0.353 and 0.38 and 0.358 and 0.42, the OD600 growth curve (6 ug/mL Sisomicin, time point 14:19:10) was 0.353 and 0.378 and 0.358 and 0.426 and the OD600 growth curve (6 ug/mL Sisomicin, time point 14:39:10) was 0.354 and 0.379 and 0.358 and 0.437. For the same compound, the OD600 growth curve (6 ug/mL Sisomicin, time point 14:59:10) was 0.354 and 0.379 and 0.363 and 0.451, the OD600 growth curve (6 ug/mL Sisomicin, time point 15:19:10) was 0.355 and 0.381 and 0.363 and 0.463 and the OD600 growth curve (6 ug/mL Sisomicin, time point 15:39:10) was 0.356 and 0.381 and 0.365 and 0.473. For the same compound, the OD600 growth curve (6 ug/mL Sisomicin, time point 15:59:10) was 0.356 and 0.381 and 0.367 and 0.486, the OD600 growth curve (6 ug/mL Sisomicin, time point 16:19:10) was 0.357 and 0.379 and 0.368 and 0.495 and the OD600 growth curve (6 ug/mL Sisomicin, time point 16:39:10) was 0.358 and 0.379 and 0.37 and 0.506. For the same compound, the OD600 growth curve (6 ug/mL Sisomicin, time point 16:59:10) was 0.358 and 0.378 and 0.371 and 0.514, the OD600 growth curve (6 ug/mL Sisomicin, time point 17:19:10) was 0.36 and 0.377 and 0.373 and 0.522 and the OD600 growth curve (12 ug/mL Sisomicin, time point 00:19:10) was 0.103 and 0.098 and 0.099. For the same compound, the OD600 growth curve (12 ug/mL Sisomicin, time point 00:39:10) was 0.103 and 0.098 and 0.1, the OD600 growth curve (12 ug/mL Sisomicin, time point 00:59:10) was 0.106 and 0.099 and 0.101 and the OD600 growth curve (12 ug/mL Sisomicin, time point 01:19:10) was 0.105 and 0.099 and 0.102. For the same compound, the OD600 growth curve (12 ug/mL Sisomicin, time point 01:39:10) was 0.106 and 0.099 and 0.103, the OD600 growth curve (12 ug/mL Sisomicin, time point 01:59:10) was 0.106 and 0.099 and 0.103 and the OD600 growth curve (12 ug/mL Sisomicin, time point 02:19:10) was 0.106 and 0.1 and 0.099 and 0.104. For the same compound, the OD600 growth curve (12 ug/mL Sisomicin, time point 02:39:10) was 0.105 and 0.1 and 0.099 and 0.104, the OD600 growth curve (12 ug/mL Sisomicin, time point 02:59:10) was 0.105 and 0.1 and 0.099 and the OD600 growth curve (12 ug/mL Sisomicin, time point 03:19:10) was 0.105 and 0.1 and 0.099. The OD600 growth curve (12 ug/mL Sisomicin, time point 03:39:10) was 0.106 and 0.1 and 0.099, the OD600 growth curve (12 ug/mL Sisomicin, time point 03:59:10) was 0.106 and 0.1 and 0.099 and the OD600 growth curve (12 ug/mL Sisomicin, time point 04:19:10) was 0.106 and 0.101 and 0.099 and 0.107. For the same compound, the OD600 growth curve (12 ug/mL Sisomicin, time point 04:39:10) was 0.106 and 0.101 and 0.099 and 0.108, the OD600 growth curve (12 ug/mL Sisomicin, time point 04:59:10) was 0.107 and 0.102 and 0.1 and 0.109 and the OD600 growth curve (12 ug/mL Sisomicin, time point 05:19:10) was 0.107 and 0.102 and 0.1 and 0.111. The OD600 growth curve (12 ug/mL Sisomicin, time point 05:39:10) was 0.108 and 0.103 and 0.1 and 0.111, the OD600 growth curve (12 ug/mL Sisomicin, time point 05:59:10) was 0.108 and 0.104 and 0.1 and 0.112 and the OD600 growth curve (12 ug/mL Sisomicin, time point 06:19:10) was 0.109 and 0.104 and 0.101 and 0.114. For the same compound, the OD600 growth curve (12 ug/mL Sisomicin, time point 06:39:10) was 0.11 and 0.106 and 0.101 and 0.114, the OD600 growth curve (12 ug/mL Sisomicin, time point 06:59:10) was 0.11 and 0.106 and 0.101 and 0.114 and the OD600 growth curve (12 ug/mL Sisomicin, time point 07:19:10) was 0.111 and 0.107 and 0.101 and 0.114. The OD600 growth curve (12 ug/mL Sisomicin, time point 07:39:10) was 0.111 and 0.108 and 0.101 and 0.114, the OD600 growth curve (12 ug/mL Sisomicin, time point 07:59:10) was 0.111 and 0.108 and 0.101 and 0.113 and the OD600 growth curve (12 ug/mL Sisomicin, time point 08:19:10) was 0.11 and 0.109 and 0.101 and 0.111. The OD600 growth curve (12 ug/mL Sisomicin, time point 08:39:10) was 0.111 and 0.109 and 0.101, the OD600 growth curve (12 ug/mL Sisomicin, time point 08:59:10) was 0.11 and 0.109 and 0.101 and 0.108 and the OD600 growth curve (12 ug/mL Sisomicin, time point 09:19:10) was 0.11 and 0.101 and 0.106. For the same compound, the OD600 growth curve (12 ug/mL Sisomicin, time point 09:39:10) was 0.11 and 0.109 and 0.101 and 0.105, the OD600 growth curve (12 ug/mL Sisomicin, time point 09:59:10) was 0.109 and 0.11 and 0.1 and 0.104 and the OD600 growth curve (12 ug/mL Sisomicin, time point 10:19:10) was 0.109 and 0.11 and 0.1 and 0.103. The OD600 growth curve (12 ug/mL Sisomicin, time point 10:39:10) was 0.108 and 0.11 and 0.1 and 0.103, the OD600 growth curve (12 ug/mL Sisomicin, time point 10:59:10) was 0.107 and 0.109 and 0.1 and 0.102 and the OD600 growth curve (12 ug/mL Sisomicin, time point 11:19:10) was 0.107 and 0.108 and 0.099 and 0.102. For the same compound, the OD600 growth curve (12 ug/mL Sisomicin, time point 11:39:10) was 0.106 and 0.108 and 0.099 and 0.102, the OD600 growth curve (12 ug/mL Sisomicin, time point 11:59:10) was 0.105 and 0.107 and 0.099 and 0.101 and the OD600 growth curve (12 ug/mL Sisomicin, time point 12:19:10) was 0.105 and 0.107 and 0.098 and 0.101. The OD600 growth curve (12 ug/mL Sisomicin, time point 12:39:10) was 0.105 and 0.106 and 0.098 and 0.101, the OD600 growth curve (12 ug/mL Sisomicin, time point 12:59:10) was 0.104 and 0.105 and 0.098 and 0.101 and the OD600 growth curve (12 ug/mL Sisomicin, time point 13:19:10) was 0.104 and 0.098 and 0.101. For the same compound, the OD600 growth curve (12 ug/mL Sisomicin, time point 13:39:10) was 0.103 and 0.098 and 0.101, the OD600 growth curve (12 ug/mL Sisomicin, time point 13:59:10) was 0.103 and 0.098 and 0.101 and the OD600 growth curve (12 ug/mL Sisomicin, time point 14:19:10) was 0.103 and 0.102 and 0.097 and 0.1. For the same compound, the OD600 growth curve (12 ug/mL Sisomicin, time point 14:39:10) was 0.102 and 0.097 and 0.1, the OD600 growth curve (12 ug/mL Sisomicin, time point 14:59:10) was 0.102 and 0.101 and 0.097 and 0.1 and the OD600 growth curve (12 ug/mL Sisomicin, time point 15:19:10) was 0.102 and 0.1 and 0.097. For the same compound, the OD600 growth curve (12 ug/mL Sisomicin, time point 15:39:10) was 0.102 and 0.1 and 0.097, the OD600 growth curve (12 ug/mL Sisomicin, time point 15:59:10) was 0.102 and 0.1 and 0.097 and the OD600 growth curve (12 ug/mL Sisomicin, time point 16:19:10) was 0.101 and 0.099 and 0.097. For the same compound, the OD600 growth curve (12 ug/mL Sisomicin, time point 16:39:10) was 0.101 and 0.099 and 0.097, the OD600 growth curve (12 ug/mL Sisomicin, time point 16:59:10) was 0.101 and 0.099 and 0.097 and the OD600 growth curve (12 ug/mL Sisomicin, time point 17:19:10) was 0.101 and 0.099 and 0.097.
